In article PMC11381335, “Unraveling the structure and function of a novel SegC protein interacting with the SegAB chromosome segregation complex in Archaea” (Nucleic Acids Research, 2024):
Where a chain is given by its changes, count along the chain named. The exact form of at least one protein or probe is not confirmed. For some of these results: A negative result means that nothing was seen under these conditions. Where a protein sequence is shown, tags need not be part of it. For some of these results: At least one verdict was read from the data and is not stated in words by the source.

Key:
Experiment in all cases: fluorescence polarization
[1] = molecular target: T1, SegC-N90A (UniProt Q981B4); conditions: two-fold lower affinity than WT; FP: 20 mM Tris-HCl pH 7.5, 100 mM NaCl, 2 mM MgCl2, 5 nM Cy3-DNA, room temperature; recombinant protein; residues 1-165; label: 5' Cy3
T1 sequence (looked up): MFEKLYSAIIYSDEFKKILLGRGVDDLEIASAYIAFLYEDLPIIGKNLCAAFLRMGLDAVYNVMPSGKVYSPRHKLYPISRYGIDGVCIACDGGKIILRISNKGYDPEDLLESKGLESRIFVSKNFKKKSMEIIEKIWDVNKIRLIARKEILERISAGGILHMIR

[2] = molecular target: T2, SegC-K46A (UniProt Q981B4); conditions: similar to WT, Kd only in figure table; FP: 20 mM Tris-HCl pH 7.5, 100 mM NaCl, 2 mM MgCl2, 5 nM Cy3-DNA, room temperature; recombinant protein; residues 1-165; label: 5' Cy3
T2 sequence (looked up): T1 sequence (looked up) with K46A, A90N

[3] = molecular target: T3, SegC-R73A (UniProt Q981B4); conditions: similar to WT, Kd only in figure table; FP: 20 mM Tris-HCl pH 7.5, 100 mM NaCl, 2 mM MgCl2, 5 nM Cy3-DNA, room temperature; recombinant protein; residues 1-165; label: 5' Cy3
T3 sequence (looked up): T1 sequence (looked up) with R73A, A90N

[4] = molecular target: T4, SegC-R81A (UniProt Q981B4); conditions: similar to WT, Kd only in figure table; FP: 20 mM Tris-HCl pH 7.5, 100 mM NaCl, 2 mM MgCl2, 5 nM Cy3-DNA, room temperature; recombinant protein; residues 1-165; label: 5' Cy3
T4 sequence (looked up): T1 sequence (looked up) with R81A, A90N

[5] = molecular target: T5, SegC (UniProt Q981B4); conditions: FP: 20 mM Tris-HCl pH 7.5, 100 mM NaCl, 2 mM MgCl2, 5 nM Cy3-DNA, room temperature, recombinant protein, protein details: C-terminal His6, label: 5' Cy3
T5 sequence (looked up): T1 sequence (looked up) with A90N

[6] = molecular target: T6, SegC-R99A (UniProt Q981B4); conditions: similar to WT, Kd only in figure table; FP: 20 mM Tris-HCl pH 7.5, 100 mM NaCl, 2 mM MgCl2, 5 nM Cy3-DNA, room temperature; recombinant protein; residues 1-165; label: 5' Cy3
T6 sequence (looked up): T1 sequence (looked up) with A90N, R99A

Sequence | Kd [1] | binding result [2] | binding result [3] | binding result [4] | binding result ([5]; 500 mM salt, NB (no measurable binding), residues …) | binding result [6] | Kd ([5]; printed as ~10^-6 uM, evidently 10^-6 M, collective value for Figure 1A and B, residues 1-165)
ACGTAGAAGAGTCTAGACTGA / CAGTCTAGACTCTTCTACGTA | 4580 nM | binds | binds | binds | no binding | binds | 
ACGTAGAAGAGTCTAGACTGA / CAGTCTAGACTCTTCTACGTA [21-bp site 1 (S1) dsDNA] |  |  |  |  |  |  | 1000 nM
